Construct, isoform or probe ends are uncertain for at least one entry.
Molecular target: MuA transposase (UniProt P07636)
Test: enzyme reaction in vitro
Conditions: DNA fragmentation, purified recombinant protein, variant of Mu-N0 transposon end (control)
[1] = among best activity of T7 variants

Sequences of proteins named here, by UniProt entry; tags and fusion partners are left off. A change or cut given only in a name is not applied to a line headed by its entry.
UniProt P07636: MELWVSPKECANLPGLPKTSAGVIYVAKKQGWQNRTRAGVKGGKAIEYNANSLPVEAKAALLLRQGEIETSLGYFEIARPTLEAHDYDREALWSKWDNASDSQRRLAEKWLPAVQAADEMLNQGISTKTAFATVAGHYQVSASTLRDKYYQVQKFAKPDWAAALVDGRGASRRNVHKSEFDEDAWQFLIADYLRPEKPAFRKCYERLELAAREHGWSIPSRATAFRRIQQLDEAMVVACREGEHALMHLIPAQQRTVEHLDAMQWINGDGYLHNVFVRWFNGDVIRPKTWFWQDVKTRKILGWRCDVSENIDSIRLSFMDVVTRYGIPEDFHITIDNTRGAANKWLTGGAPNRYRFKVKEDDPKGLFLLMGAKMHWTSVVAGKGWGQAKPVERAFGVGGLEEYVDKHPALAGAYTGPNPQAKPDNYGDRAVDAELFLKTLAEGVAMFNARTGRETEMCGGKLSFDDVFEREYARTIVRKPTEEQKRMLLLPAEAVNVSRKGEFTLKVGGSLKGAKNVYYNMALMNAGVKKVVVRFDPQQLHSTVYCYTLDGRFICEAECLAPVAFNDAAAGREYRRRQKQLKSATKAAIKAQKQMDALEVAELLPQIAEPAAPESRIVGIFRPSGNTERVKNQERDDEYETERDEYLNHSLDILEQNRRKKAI

Sequence	activity on this sequence [1]	activity on this sequence (active)
GTTTTCGCATTTAATACGACTCACTATAGCGTTTTTCGTGCGCCGCTTCA / CTAGTGAAGCGGCGCACGAAAAACGCTATAGTGAGTCGTATTAAATGCGAAAAC [Tn-T7.1]	active	–
GTTTTCGCATTTAATATGACTCACTATAGCGTTTTTCGTGCGCCGCTTCA / CTAGTGAAGCGGCGCACGAAAAACGCTATAGTGAGTCATATTAAATGCGAAAAC [Tn-T7.3]	active	–
GTTTTCGCATTTAATATGACTCACTTTAGCGTTTTTCGTGCGCCGCTTCA / CTAGTGAAGCGGCGCACGAAAAACGCTAAAGTGAGTCATATTAAATGCGAAAAC [Tn-T7.4]	active	–
GTTTTCGCATTTATCGTGAAACGCTTTCGCGTATTACGTCTCACTATAGA / CTAGTCTATAGTGAGACGTAATACGCGAAAGCGTTTCACGATAAATGCGAAAAC [Tn-T7.6]	–	active
GTTTTCGCATTTATCGTGAAACGCTTTCGCGTTTTACGTCTCACTATAGA / CTAGTCTATAGTGAGACGTAAAACGCGAAAGCGTTTCACGATAAATGCGAAAAC [Tn-T7.7]	–	active
TATTTCGACTCACTATTGAAACGCTTTCGCGTTTTTCGTGCGCCGCTTCA / CTAGTGAAGCGGCGCACGAAAAACGCGAAAGCGTTTCAATAGTGAGTCGAAATA [Tn-T7.8]	–	active

— patent publication US20220396788
